According to US11066455B2, “Tmem100 peptides and variants thereof and their use in treating or preventing diseases or conditions” (The Johns Hopkins University, priority 2014, dated 2021):
No constants are given. Whether binding was seen depends on the method and setting. Binding can be weak; no strength is given.

Key:
[1] = target: TRPV1 (expressed in heterologous cells: CHO, HEK293T); test: summary of electrophysiological and biochemical results
[2] = target: TRPA1 (expressed in heterologous cells: CHO, HEK293T); test: as above
[3] = target: TRPV1 (expressed in heterologous cells: CHO, HEK293T); test: FRET-TIRF
[4] = target: TRPA1 (expressed in heterologous cells: CHO, HEK293T); test: FRET-TIRF

Measured: binding

B1: Tmem100 (wild-type, full-length, mouse) (other)
chain: MTEESTKENLGAPKSPTPVTMEKNPKREVVVTTGPLVSEVQLMAATGGAELSCYRCIIPFAVVVFITGIVVTAVAYSFNSHGSIISIFGLVLLSSGLFLLASSALCWKVRQRNKKVKRRESQTALVVNQRCLFA
notes: also called Pirt2; T100
binds: all assays above
